Assay results reported in publication PMC7434776.
No constants are given. Whether binding was seen depends on the method and setting. In cells and extracts the contact can be indirect. Binding calls can cover weak binding; strength is not graded here.

Assays:
[1] = biological target: T1, endogenous MTHFD2 (human (endogenous in HCT116)) (UniProt P13995); assay: co-IP; endogenous proteins; HCT116 whole-cell lysates incubated with anti-MTHFD2, anti-SIRT3 or control IgG, then Protein-A beads, 4 °C; 1% Nonidet P40 buffer; western blot
T1 sequence: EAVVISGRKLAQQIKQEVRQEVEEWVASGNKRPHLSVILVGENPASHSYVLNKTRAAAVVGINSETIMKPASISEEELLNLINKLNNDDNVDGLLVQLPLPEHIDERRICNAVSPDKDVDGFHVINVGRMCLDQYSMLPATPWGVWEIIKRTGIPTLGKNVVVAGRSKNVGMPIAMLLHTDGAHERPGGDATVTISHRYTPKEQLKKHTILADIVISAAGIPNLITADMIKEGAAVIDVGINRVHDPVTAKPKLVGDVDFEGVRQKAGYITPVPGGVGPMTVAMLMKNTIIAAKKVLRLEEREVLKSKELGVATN

[2] = biological target: endogenous SIRT3 (human (endogenous in HCT116)); assay: as above

endogenous SIRT3 (human (endogenous in HCT116)) (enzyme)
binding [1]: binds

B1: endogenous MTHFD2 (enzyme, UniProt P13995 36-350)
chain: EAVVISGRKLAQQIKQEVRQEVEEWVASGNKRPHLSVILVGENPASHSYVLNKTRAAAVVGINSETIMKPASISEEELLNLINKLNNDDNVDGLLVQLPLPEHIDERRICNAVSPDKDVDGFHVINVGRMCLDQYSMLPATPWGVWEIIKRTGIPTLGKNVVVAGRSKNVGMPIAMLLHTDGAHERPGGDATVTISHRYTPKEQLKKHTILADIVISAAGIPNLITADMIKEGAAVIDVGINRVHDPVTAKPKLVGDVDFEGVRQKAGYITPVPGGVGPMTVAMLMKNTIIAAKKVLRLEEREVLKSKELGVATN
binding [2]: binds
